In article PMC7819943, “Rice protein-binding microarrays: a tool to detect cis-acting elements near promoter regions in rice” one finds binding signal data, which are given here for 42 sequences.

The list shows a part of the results.

The assay addresses T1, OsSMF1 (Oryza sativa, UniProt Q6ZLB0 1-436).
T1 sequence: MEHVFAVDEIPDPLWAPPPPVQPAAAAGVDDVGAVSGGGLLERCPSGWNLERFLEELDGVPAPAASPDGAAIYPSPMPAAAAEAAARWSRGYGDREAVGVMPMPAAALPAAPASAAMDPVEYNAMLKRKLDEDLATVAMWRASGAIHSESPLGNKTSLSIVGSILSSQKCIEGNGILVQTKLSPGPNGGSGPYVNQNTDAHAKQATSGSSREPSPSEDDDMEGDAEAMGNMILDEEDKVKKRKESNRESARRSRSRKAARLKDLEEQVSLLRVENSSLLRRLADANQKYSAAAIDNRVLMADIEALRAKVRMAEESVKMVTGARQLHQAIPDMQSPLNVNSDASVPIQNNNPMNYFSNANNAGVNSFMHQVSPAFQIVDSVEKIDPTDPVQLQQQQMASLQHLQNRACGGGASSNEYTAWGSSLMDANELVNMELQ
Put plainly: protein-binding microarray (RPBM); PBS, 2% BSA, 51.3 ng/ul salmon testes DNA, 50 uM zinc acetate, 200 nM TF, 25 C, 1 h; high values mean tight binding. The note with it: protein: recombinant; tags: N-terminal polyhistidine and DsRed monomer fusion (pET32a); chain copies: 2; label: CyDye5-dUTP incorporated in the synthesized complementary strand; 3' TTTTT single-stranded linker to array surface; dsDNA, one strand shown. The procedure, abridged:
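Per-feature fluorescence intensity (arbitrary units), read on an Axon 4000B scanner, is the binding signal. Transcription factors carrying an N-terminal polyhistidine tag and DsRed fusion were expressed in E. coli BL21-CodonPlus and purified on Ni–NTA. A custom Agilent array, made double-stranded by primer extension with Cy5-dUTP and blocked with 2% BSA, was incubated with 200 nM protein in PBS, 2% BSA, salmon testes DNA and 50 µM zinc acetate at 25 °C for 1 h and then washed.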
For “CTGTTGCCTACTCCCTCCTCAATCCTGCAGAAGTTTCTGACGGAGTCACCTAGTGCAG”, the binding signal is 3240 fluorescence intensity (a.u.). In the case of “AAAATATAGGGGAAAGGAAACTGCCACGTGCCCAAGAAGTCGGAGTCACCTAGTGCAG” it was 7840 fluorescence intensity (a.u.); in that of “ACTCGCGGCTGCCCTTGCCAGCTCACTTCCTCCACCGGCGCGGAGTCACCTAGTGCAG”, 4650 fluorescence intensity (a.u.). Next, “AAAAGAATATATGATTATTTGTTATTAGTCATCTGTGCTTCGGAGTCACCTAGTGCAG”: 3360 fluorescence intensity (a.u.); “ACACCGAATGCGTCATGCGTCACAGAGTATGAGGCAATACCGGAGTCACCTAGTGCAG”: 3660 fluorescence intensity (a.u.). In the case of “GTTCCAAGGCTACCCTATGCTGCAAAAGAAAGGGGAAAACCGGAGTCACCTAGTGCAG” it was 3200 fluorescence intensity (a.u.); in that of “CTAGAAGTTACCAAGGTACCAGAGCAGACACCTAAGCAGCCGGAGTCACCTAGTGCAG”, 3370 fluorescence intensity (a.u.); in that of “TGAATTTATTCTTTCCGCATGTGACAACTAGATCTGGCCTCGGAGTCACCTAGTGCAG”, 3800 fluorescence intensity (a.u.). Consider “CAGCAGGTGCAGGTGCAGGAGCAGGAAGAGTGGAGAGGTGCGGAGTCACCTAGTGCAG”, for which the binding signal is 3320 fluorescence intensity (a.u.). In the case of “TTGCTGCAAATGACGTCGACATGTGCGTGGCATACCATGGCGGAGTCACCTAGTGCAG” it was 15000 fluorescence intensity (a.u.); in that of “TGATTGTGTTGGTCCTTTTGGCCATTAGCACAGAGTTCGCCGGAGTCACCTAGTGCAG”, 20600 fluorescence intensity (a.u.); in that of “TGAGTCAAGCGTGTGATGTCACCTGTTGCTGTGGACACAACGGAGTCACCTAGTGCAG”, 14500 fluorescence intensity (a.u.). In the case of “TTTCTCGACGTCCTCTGCCTCGTTTTCTTTGCCGATGATGCGGAGTCACCTAGTGCAG” it was 3220 fluorescence intensity (a.u.); in that of “CCTCTCGCCGTCGCCGGCGCCACCGCGACATGCCTCCTCTCGGAGTCACCTAGTGCAG”, 4430 fluorescence intensity (a.u.). Next, “GCTTCAAAGTAAGTGTGTGCGTGTAGATGAGTGGACTTGTCGGAGTCACCTAGTGCAG”: 4940 fluorescence intensity (a.u.); “GAAGGGTCATCGTGACCTTTCTAAGATCTTGCGTCAACTTCGGAGTCACCTAGTGCAG”: 3310 fluorescence intensity (a.u.). Take “GTGTTTGATATTTGGAGTTCCATCTCGCCAATTCTACTGACGGAGTCACCTAGTGCAG”: the binding signal was 4180 fluorescence intensity (a.u.). Next, “CCGCCCCACGCGGCGCCACCACACCACCGCGCGCGTCGCTCGGAGTCACCTAGTGCAG”: 5900 fluorescence intensity (a.u.). Regarding “TGCATTATTGGTGATATGTGACGCATGACGCATGGCTACACGGAGTCACCTAGTGCAG”, the binding signal is 7640 fluorescence intensity (a.u.). Next, “TGCCAAAGCTTCTGTGTTATTTGCTGGAATTGTCACCCAACGGAGTCACCTAGTGCAG”: 3240 fluorescence intensity (a.u.); “GCTAAATAAACTCGTCTGAGCACATGTGGCCCGATGTGTCCGGAGTCACCTAGTGCAG”: 3440 fluorescence intensity (a.u.).

For the sequence “TCCCACTCGATTTGGGAGAAAATACAGGGATTAAACTCTGCGGAGTCACCTAGTGCAG”, the binding signal is 3550 fluorescence intensity (a.u.). Regarding “CTTGCTTGCTTACGTCTCTCTCGCACACTCCCACTATTCTCGGAGTCACCTAGTGCAG”, the binding signal is 3330 fluorescence intensity (a.u.). Next, “TAGAAACGTGCGAGTACGTGGAGGTTTTCCTTAACCTATCCGGAGTCACCTAGTGCAG”: 4920 fluorescence intensity (a.u.); “AATCTAACATGGATTTGCGCACACACTTGTCGTAACGTACCGGAGTCACCTAGTGCAG”: 3460 fluorescence intensity (a.u.). Next, “TTTCTTAATCTACTCCATGCTGACTGGCTCCTAGGTTCAACGGAGTCACCTAGTGCAG”: 5330 fluorescence intensity (a.u.); “ATTAGGTGTTTCCAGTTAATTAAAGTCATGTAGTACGGATCGGAGTCACCTAGTGCAG”: 3620 fluorescence intensity (a.u.); “TCTAGTGCACACAGTAACGTGGAATCTCATCACGATCATTCGGAGTCACCTAGTGCAG”: 3780 fluorescence intensity (a.u.). In the case of “TGATACGAGCAGCGGCCGTCGGTGTCAGCGAACAGAGCGCCGGAGTCACCTAGTGCAG” it was 3240 fluorescence intensity (a.u.); in that of “TGCTGCCAGAGTCAGTAGGTGCCCTCTTCCACCTGCAGACCGGAGTCACCTAGTGCAG”, 3270 fluorescence intensity (a.u.).

For “GGCATCTCTTTCTTTCGCGTTTTCTCTTCCGCCAGATAGGCGGAGTCACCTAGTGCAG”, the binding signal is 3330 fluorescence intensity (a.u.). In the case of “TCTCCTATCTTACGAGACAAGAACACCAGCTGTCATGTGTCGGAGTCACCTAGTGCAG”, the binding signal was 4740 fluorescence intensity (a.u.).

In the case of “ATCACTGAGGTATACAGGTAGCTAGCTAGCAAATTAAGTACGGAGTCACCTAGTGCAG”, the binding signal is 4070 fluorescence intensity (a.u.). In the case of “CTGGCGCTGAGTTTCCCACAGTCAGCGCCATTATGGCTGGCGGAGTCACCTAGTGCAG”, the binding signal was 5750 fluorescence intensity (a.u.). In the case of “CGCTTTTGTGTGGGAGAGGTTCGAACGTGTCCGGAATTTTCGGAGTCACCTAGTGCAG” it was 3460 fluorescence intensity (a.u.); in that of “ACATTTTACACCGTAAAACGGAGGAATTACCTGCGACTTTCGGAGTCACCTAGTGCAG”, 25500 fluorescence intensity (a.u.); in that of “CTCACCGGCGTCAGCGTGCATCCATGGACACGAGCTCTTCCGGAGTCACCTAGTGCAG”, 3740 fluorescence intensity (a.u.).

Take “CATTATGATCTGTCCACTCTTATTATAATTTTCATGAATGCGGAGTCACCTAGTGCAG”: the binding signal is 3950 fluorescence intensity (a.u.).

“CTTGTCGCACTCGGGCTCCATCCACGTGGTGACGAAGGACCGGAGTCACCTAGTGCAG”: the binding signal was 8950 fluorescence intensity (a.u.). In the case of “GTTAGTTGTCACTGAACCCTACATTGTCATTTTCTTTTCACGGAGTCACCTAGTGCAG” it was 22700 fluorescence intensity (a.u.); in that of “CGCACTCAGCTTGTTCCTCTAACTGTACACAGTGGTACTTCGGAGTCACCTAGTGCAG”, 26500 fluorescence intensity (a.u.); in that of “ATCTCGCGCTTCACACGCAACGCAAGAACTCGACGAGGCGCGGAGTCACCTAGTGCAG”, 3370 fluorescence intensity (a.u.).
